Measured values as given in patent US20160263110A1 (priority 2013, published 2016).

Tested on: B6SJL-Tg SOD1G93A female mice
Conditions: overall significance level 0.05

Cc1ccc(NC(=O)c2ccc(CN3CCN(C)CC3)cc2)cc1Nc1nc(-c2cccnc2)cs1 [masitinib, 4-(4-methylpiperazin-1-ylmethyl)-N-[4-methyl-3-(4-pyridin-3ylthiazol-2-ylamino)phenyl]benzamide]
Significant? onset curves, versus CTRL (30 mg/kg/day (MASI 1)): Yes
Significant? onset curves, versus CTRL (100 mg/kg/day (MASI 2)): Yes

Read-outs that look alike come from different tables or passages of the source.
